# Measured values as given in the supplement of paper PMC8728848.
# Some of the results follow.
# B1: C7A (Sus scrofa) (peptide)
# chain: KILRGVCKKIMRTFLRRISKKILTGKK
# Legend:
# Assay in all cases: glycan array binding signal (z-score within array); higher = stronger binding
# Conditions in all cases: glycan notation: IUPAC condensed, linker removed; mutation: D21K
# Gal6S(b1-4)Glc = biological target: Gal6S(b1-4)Glc
# Outline: (§1)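 The binding signal is a Z-score computed within each array and averaged over linkers. Arrays of the same protein sequence at different concentrations or buffers were also averaged together. Data originate from 3228 arrays in the Consortium for Functional Glycomics database, kept only where the protein sequence was available.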
# Gal6S(b1-4)Glc6S = biological target: Gal6S(b1-4)Glc6S
# Outline: as §1
# Gal6S(b1-4)GlcNAc = biological target: Gal6S(b1-4)GlcNAc
# Outline: as §1
# Gal6S(b1-4)GlcNAc6S = biological target: Gal6S(b1-4)GlcNAc6S
# Outline: as §1
# GalNAc(a1-3)Gal = biological target: GalNAc(a1-3)Gal
# Outline: as §1
# GalNAc(a1-3)GalNAc = biological target: GalNAc(a1-3)GalNAc
# Outline: as §1
# [1] = biological target: GalNAc(a1-3)GalNAc(b1-3)Gal(a1-4)Gal(b1-4)Glc
# Outline: as §1
# [2] = biological target: GalNAc(a1-3)GalNAc(b1-3)Gal(a1-4)Gal(b1-4)GlcNAc
# Outline: as §1
# GalNAc(b1-3)Gal = biological target: GalNAc(b1-3)Gal
# Outline: as §1
# [3] = biological target: GalNAc(b1-3)Gal(a1-4)Gal(b1-4)GlcNAc
# Outline: as §1
# [4] = biological target: GalNAc(b1-3)Gal(a1-4)Gal(b1-4)GlcNAc(b1-3)Gal(b1-4)Glc
# Outline: as §1
# [5] = biological target: GalNAc(b1-3)Gal(a1-6)Gal(b1-4)Glc
# Outline: as §1
# GalNAc(b1-3)GalNAc = biological target: GalNAc(b1-3)GalNAc
# Outline: as §1
# GalNAc(b1-3)GlcNAc = biological target: GalNAc(b1-3)GlcNAc
# Outline: as §1
# GalNAc(b1-4)Gal(b1-4)Glc = biological target: GalNAc(b1-4)Gal(b1-4)Glc
# Outline: as §1
# GalNAc(b1-4)GlcNAc = biological target: GalNAc(b1-4)GlcNAc
# Outline: as §1
# [6] = biological target: GalNAc(b1-4)GlcNAc(b1-2)Man
# Outline: as §1
# [7] = biological target: GalNAc(b1-4)GlcNAc(b1-2)Man(a1-3)[GalNAc(b1-4)GlcNAc(b1-2)Man(a1-6)]Man(b1-4)GlcNAc(b1-4)GlcNAc
# Outline: as §1
# [8] = biological target: GalNAc(b1-4)GlcNAc(b1-3)GalNAc(b1-4)GlcNAc
# Outline: as §1
# GalNAc(b1-4)GlcNAc6S = biological target: GalNAc(b1-4)GlcNAc6S
# Outline: as §1
# GalNAc(b1-6)GalNAc = biological target: GalNAc(b1-6)GalNAc
# Outline: as §1
# GalNAc3S(b1-4)GlcNAc = biological target: GalNAc3S(b1-4)GlcNAc
# Outline: as §1
# GalNAc3S(b1-4)GlcNAc3S = biological target: GalNAc3S(b1-4)GlcNAc3S
# Outline: as §1
# [9] = biological target: GalNAc3S(b1-4)[Fuc(a1-3)]GlcNAc
# Outline: as §1
# GalNAc4S6S(b1-4)GlcNAc = biological target: GalNAc4S6S(b1-4)GlcNAc
# Outline: as §1
# GalNAc6S(b1-4)GlcNAc = biological target: GalNAc6S(b1-4)GlcNAc
# Outline: as §1
# Glc(a1-4)Glc = biological target: Glc(a1-4)Glc
# Outline: as §1
# [10] = biological target: Glc(a1-4)Glc(a1-4)Glc(a1-4)Glc
# Outline: as §1
# Glc(a1-6)Glc(a1-6)Glc = biological target: Glc(a1-6)Glc(a1-6)Glc
# Outline: as §1
# [11] = biological target: Glc(a1-6)Glc(a1-6)Glc(a1-6)Glc
# Outline: as §1
# Glc(b1-4)Glc = biological target: Glc(b1-4)Glc
# Outline: as §1
# Glc(b1-6)Glc = biological target: Glc(b1-6)Glc
# Outline: as §1
# GlcA(b1-3)Gal = biological target: GlcA(b1-3)Gal
# Outline: as §1
# GlcA(b1-3)GlcNAc = biological target: GlcA(b1-3)GlcNAc
# Outline: as §1
# GlcA(b1-6)Gal = biological target: GlcA(b1-6)Gal
# Outline: as §1
# [12] = biological target: GlcA3S(b1-3)Gal(b1-4)GlcNAc(b1-2)Man
# Outline: as §1
# [13] = biological target: GlcA3S(b1-3)Gal(b1-4)GlcNAc(b1-3)Gal(b1-4)Glc
# Outline: as §1
# [14] = biological target: GlcNAc(a1-3)Gal(b1-4)GlcNAc
# Outline: as §1
# [15] = biological target: GlcNAc(a1-4)Gal(b1-3)GlcNAc
# Outline: as §1
# [16] = biological target: GlcNAc(a1-4)Gal(b1-4)GalNAc
# Outline: as §1
# [17] = biological target: GlcNAc(a1-4)Gal(b1-4)GlcNAc
# Outline: as §1
# [18] = biological target: GlcNAc(a1-4)Gal(b1-4)GlcNAc(b1-3)Gal(b1-4)Glc
# Outline: as §1
# [19] = biological target: GlcNAc(a1-4)Gal(b1-4)GlcNAc(b1-3)Gal(b1-4)GlcNAc
# Outline: as §1
# [20] = biological target: GlcNAc(a1-4)Gal(b1-4)GlcNAc(b1-3)Gal(b1-4)GlcNAc(b1-3)Gal(b1-4)GlcNAc
# Outline: as §1
# [21] = biological target: GlcNAc(a1-4)Gal(b1-4)GlcNAc(b1-3)Gal(b1-4)[Fuc(a1-3)]GlcNAc(b1-3)Gal(b1-4)[Fuc(a1-3)]GlcNAc
# Outline: as §1
# [22] = biological target: GlcNAc(a1-6)Gal(b1-4)GlcNAc
# Outline: as §1
# [23] = biological target: GlcNAc(b1-2)Gal(b1-3)GalNAc
# Outline: as §1
# [24] = biological target: GlcNAc(b1-2)Man(a1-3)[GlcNAc(b1-2)Man(a1-6)]Man(b1-4)GlcNAc(b1-4)GlcNAc
# Outline: as §1
# [25] = biological target: GlcNAc(b1-2)Man(a1-3)[GlcNAc(b1-2)Man(a1-6)]Man(b1-4)GlcNAc(b1-4)[Fuc(a1-6)]GlcNAc
# Outline: as §1
# [26] = biological target: GlcNAc(b1-2)Man(a1-3)[GlcNAc(b1-4)][GlcNAc(b1-2)Man(a1-6)]Man(b1-4)GlcNAc(b1-4)GlcNAc
# Outline: as §1
# [27] = biological target: GlcNAc(b1-2)Man(a1-3)[GlcNAc(b1-4)][GlcNAc(b1-2)Man(a1-6)]Man(b1-4)GlcNAc(b1-4)[Fuc(a1-6)]GlcNAc
# Outline: as §1
# [28] = biological target: GlcNAc(b1-2)[GlcNAc(b1-4)]Man(a1-3)[GlcNAc(b1-2)Man(a1-6)]Man(b1-4)GlcNAc(b1-4)GlcNAc
# Outline: as §1
binder,measurement,setting,value
B1,glycan array binding signal (z-score),Gal6S(b1-4)Glc,-0.286
same,glycan array binding signal (z-score),Gal6S(b1-4)Glc6S,-0.552
same,glycan array binding signal (z-score),Gal6S(b1-4)GlcNAc,0.044
same,glycan array binding signal (z-score),Gal6S(b1-4)GlcNAc6S,1.78
same,glycan array binding signal (z-score),GalNAc(a1-3)Gal,-0.414
same,glycan array binding signal (z-score),GalNAc(a1-3)GalNAc,-0.728
same,glycan array binding signal (z-score),[1],-1.07
same,glycan array binding signal (z-score),[2],0.64
same,glycan array binding signal (z-score),GalNAc(b1-3)Gal,0.294
same,glycan array binding signal (z-score),[3],-0.726
same,glycan array binding signal (z-score),[4],1.58
same,glycan array binding signal (z-score),[5],-1.14
same,glycan array binding signal (z-score),GalNAc(b1-3)GalNAc,-0.108
same,glycan array binding signal (z-score),GalNAc(b1-3)GlcNAc,-0.947
same,glycan array binding signal (z-score),GalNAc(b1-4)Gal(b1-4)Glc,0.214
same,glycan array binding signal (z-score),GalNAc(b1-4)GlcNAc,-1.06
same,glycan array binding signal (z-score),[6],-0.838
same,glycan array binding signal (z-score),[7],0.958
same,glycan array binding signal (z-score),[8],-0.269
same,glycan array binding signal (z-score),GalNAc(b1-4)GlcNAc6S,2.21
same,glycan array binding signal (z-score),GalNAc(b1-6)GalNAc,-1.26
same,glycan array binding signal (z-score),GalNAc3S(b1-4)GlcNAc,0.857
same,glycan array binding signal (z-score),GalNAc3S(b1-4)GlcNAc3S,1.14
same,glycan array binding signal (z-score),[9],-0.571
same,glycan array binding signal (z-score),GalNAc4S6S(b1-4)GlcNAc,2.43
same,glycan array binding signal (z-score),GalNAc6S(b1-4)GlcNAc,0.92
same,glycan array binding signal (z-score),Glc(a1-4)Glc,0.362
same,glycan array binding signal (z-score),[10],0.113
same,glycan array binding signal (z-score),Glc(a1-6)Glc(a1-6)Glc,-0.06
same,glycan array binding signal (z-score),[11],1.13
same,glycan array binding signal (z-score),Glc(b1-4)Glc,-0.305
same,glycan array binding signal (z-score),Glc(b1-6)Glc,-0.45
same,glycan array binding signal (z-score),GlcA(b1-3)Gal,-0.138
same,glycan array binding signal (z-score),GlcA(b1-3)GlcNAc,0.609
same,glycan array binding signal (z-score),GlcA(b1-6)Gal,-1.53
same,glycan array binding signal (z-score),[12],1.34
same,glycan array binding signal (z-score),[13],0.129
same,glycan array binding signal (z-score),[14],-0.725
same,glycan array binding signal (z-score),[15],-1.74
same,glycan array binding signal (z-score),[16],-1.08
same,glycan array binding signal (z-score),[17],-1.22
same,glycan array binding signal (z-score),[18],-0.555
same,glycan array binding signal (z-score),[19],-0.66
same,glycan array binding signal (z-score),[20],-0.996
same,glycan array binding signal (z-score),[21],-1.42
same,glycan array binding signal (z-score),[22],-1.5
same,glycan array binding signal (z-score),[23],-0.552
same,glycan array binding signal (z-score),[24],-0.062
same,glycan array binding signal (z-score),[25],-0.077
same,glycan array binding signal (z-score),[26],1.49
same,glycan array binding signal (z-score),[27],-0.3
same,glycan array binding signal (z-score),[28],0.556

# Given with tabs: part of the list above.
binder	measurement	setting	value
B1	glycan array binding signal (z-score)	Gal6S(b1-4)GlcNAc6S	1.78
same	glycan array binding signal (z-score)	GalNAc(a1-3)Gal	-0.414
same	glycan array binding signal (z-score)	[1]	-1.07
same	glycan array binding signal (z-score)	[3]	-0.726
same	glycan array binding signal (z-score)	GalNAc(b1-4)GlcNAc	-1.06
same	glycan array binding signal (z-score)	[6]	-0.838
same	glycan array binding signal (z-score)	[7]	0.958
same	glycan array binding signal (z-score)	GalNAc3S(b1-4)GlcNAc	0.857
same	glycan array binding signal (z-score)	GalNAc3S(b1-4)GlcNAc3S	1.14
same	glycan array binding signal (z-score)	Glc(a1-6)Glc(a1-6)Glc	-0.06
same	glycan array binding signal (z-score)	GlcA(b1-3)Gal	-0.138
same	glycan array binding signal (z-score)	GlcA(b1-3)GlcNAc	0.609
same	glycan array binding signal (z-score)	[24]	-0.062
